{"source": "patent US20050272636A1", "about": "“Treatment and diagnosis of a reproductive disorder by measuring or inhibiting interferon-gamma” (Adelaide Research & Innovation Pty Ltd., priority 2002, published 2005)", "system": "IFNγ", "assay": "Inhibitors and antagonists counteracting the GM-CSF-inhibiting actions of IFNγ in uterine epithelial cells (Example 3)", "type": "cell-based, mouse", "details": "TGFβ isoform at 0.5 ng/ml", "experimental": "Several inhibitors and antagonists of IFNγ were tested for their ability to counteract the GM-CSF-inhibiting actions of IFNγ in epithelial cells.\nUterine Epithelial Cell Cultures. Uterine epithelial cells prepared by pancreatin-trypsin digest as previously described (Robertson et al., (1992) Biol. Reprod. 46:1069-1079) were pooled from 4-6 estrous adult C57B1/6×CBA F1 female mice and plated in 1 ml culture wells (Nunc, Roskilde, Germany) at 1-2×10^5 cells per ml in 500 μl of RPMI containing 10% FCS and streptomycin (RPMI-FCS). Penicillin was omitted from culture media except where specified. […] Culture supernatants were collected and replaced with fresh complete RPMI-FCS alone at 16 hours, then collected again 24 hours later, at which time adherent cells were quantified as previously described (Robertson et al., (1992) Biol. Reprod. 46:1069-1079). The GM-CSF content of 24 h supernatants was determined by GM-CSF bioassay or immunoassay. […]\nGM-CSF bioassay and immunoassay: Bioactive GM-CSF was assayed using the GM-CSF dependant cell line FD 5/12, essentially as previously described (Robertson et al., (1992) Biol. Reprod. 46:1069-1079). Cell proliferation was determined by the addition of 1 μCi of [^3H]-thymidine per well for the last 6 h of the assay. […]", "note": "Some entries share one result that the patent states for a list of compounds.", "data": [{"substance": "rhTGFβ1: recombinant human transforming growth factor β1 (R&D Systems)", "values": [{"measurement": "IFNγ concentration up to which IFNγ was counteracted", "value": "≤ 620", "unit": "pg/mL"}]}]}
